These are yes or no findings as the source states them, for the method shown. Where a sequence is shown, tags or fusion partners need not be part of it.
Molecular target: T1, GTF2IRD1 C-terminal truncation TR1 (aa 1-932) fused to the GAL4 DNA-binding domain (human) (UniProt Q9UHL9)
T1 sequence: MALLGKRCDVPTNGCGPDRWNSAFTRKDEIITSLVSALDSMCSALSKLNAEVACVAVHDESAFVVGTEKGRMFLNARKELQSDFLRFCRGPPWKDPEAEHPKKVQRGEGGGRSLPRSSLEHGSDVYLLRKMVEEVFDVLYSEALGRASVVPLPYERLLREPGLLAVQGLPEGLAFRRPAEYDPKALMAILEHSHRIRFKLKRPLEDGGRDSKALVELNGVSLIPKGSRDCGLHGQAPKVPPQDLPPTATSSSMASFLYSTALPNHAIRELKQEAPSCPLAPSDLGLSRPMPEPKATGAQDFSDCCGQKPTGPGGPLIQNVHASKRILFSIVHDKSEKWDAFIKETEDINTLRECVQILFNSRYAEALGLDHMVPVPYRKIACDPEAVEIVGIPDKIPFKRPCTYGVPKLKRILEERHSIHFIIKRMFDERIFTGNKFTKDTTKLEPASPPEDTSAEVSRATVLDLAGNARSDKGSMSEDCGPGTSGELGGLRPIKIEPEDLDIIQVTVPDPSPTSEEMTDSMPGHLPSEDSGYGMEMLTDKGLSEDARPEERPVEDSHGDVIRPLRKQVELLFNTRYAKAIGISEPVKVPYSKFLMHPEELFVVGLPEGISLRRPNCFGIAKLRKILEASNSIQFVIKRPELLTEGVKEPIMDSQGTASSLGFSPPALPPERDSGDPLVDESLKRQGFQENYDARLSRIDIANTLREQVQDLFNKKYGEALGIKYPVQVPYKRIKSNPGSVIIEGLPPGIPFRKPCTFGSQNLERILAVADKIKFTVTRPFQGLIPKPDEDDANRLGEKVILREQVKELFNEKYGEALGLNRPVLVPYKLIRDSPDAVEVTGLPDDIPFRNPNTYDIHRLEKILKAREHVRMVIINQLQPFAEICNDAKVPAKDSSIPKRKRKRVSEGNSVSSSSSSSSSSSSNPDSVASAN
Experiment: two-hybrid; Matchmaker system; co-transformation of pGBKT7 bait and pGADT7 prey into S. cerevisiae AH109; double transformants from DDO plates re-spotted on QDO plates with x-α-galactosidase (HIS3, ADE2, MEL1 markers)

- binding: no binding
Substance: PIASxβ fused to the GAL4 activation domain (pGADT7-PIASxβ) (from UniProt Q8C5D8-1 1-621) (enzyme)
